The assay has as its system P388 leukemia ip, CD2F1 mice, survival T/C. Description: NCI In Vivo Anticancer Drug Screen. Data for tumor model P388 Leukemia (intraperitoneal) in CD2F1 (CDF1) mice. The note with it: T/C endpoint: median survival time, higher T/C = longer survival.
[1] abbreviates: dose: 50.0 mg/kg/injection, schedule: Q01DX005 (ip), vehicle: saline with Tween-80.
Where [2] appears, read: dose: 100.0 mg/kg/injection, schedule: Q01DX009 (ip), vehicle: saline.
The mark [3] stands for this setting: dose: 200.0 mg/kg/injection, schedule: Q01DX009 (ip), vehicle: saline.
Setting [4] is: dose: 100.0 mg/kg/injection, schedule: Q01DX005 (ip), vehicle: saline with Tween-80.
Setting [5] is: dose: 200.0 mg/kg/injection, schedule: Q01DX005 (ip), vehicle: saline with Tween-80.
[6] abbreviates: dose: 400.0 mg/kg/injection, schedule: Q04DX002 (ip), vehicle: saline with Tween-80.
Where [7] appears, read: dose: 12.5 mg/kg/injection, schedule: Q01DX009 (ip), vehicle: Klucel (hydroxypropylcellulose) (HPC).
Setting [8] is: dose: 25.0 mg/kg/injection, schedule: Q01DX009 (ip), vehicle: Klucel (hydroxypropylcellulose) (HPC).

This is an account of results in PubChem BioAssay AID330 (DTP/NCI, 2004).

The list is a part of this screen's results and no random one: it is rich in T/C values a quarter to a half above the control, in often repeated tests (any T/C) and in doses without a T/C. Further doses and runs are listed elsewhere. T/C: endpoint of the treated group in % of that of the vehicle group. Some doses have a count of surviving animals in place of a T/C: the source holds a T/C of zero for them, seemingly a mark for toxic or unscored doses. Some survivor counts are full or nearly so, which does not show that the dose was tolerated: survival well below the control is almost never listed, so the zero probably covers shortened survival too. Survivors were counted at the toxicity check, usually on the fifth day, unless a day is given; later deaths do not show. Schedules are NCI's codes, taken here to give the interval after Q, in days (D) or hours (H), and the number of doses after X. Some doses were run more than once; their values stand side by side, smallest first. For survival time, the PubChem record calls one and a half times the control and up active, and a quarter to a half above the control has no call in these data; cut-offs in other NCI protocols can differ. Some T/C values carry the count of animals alive at the toxicity check (mostly the fifth day); where none is given, no animal had died by that day.

As for `COc1cc2c(cc1OC)[C@H](c1cc(Br)c(O)c(OC)c1)[C@H]1C(=O)OCC1C2` (stereo partly specified), under setting [1], the survivor count was 6 of 6.

On to `CC(=O)O[C@@H]1C[C@@H]2[C@@]3(C)CC[C@@H](OC(=O)CC(=O)O)C(C)(C)[C@@H]3CC[C@@]2(C)[C@]2(C)CCCC([C@]3(C)CC[C@H](C(C)(C)O)O3)[C@@H]12` (stereo partly specified), for which the survivor count (dose: 50.0 mg/kg/injection, schedule: Q01DX005 (ip), vehicle: Klucel (hydroxypropylcellulose) (HPC)) was 5 of 5.

Consider `O=C(O)c1c[nH]c2cc(OCc3ccc(Cl)c(Cl)c3)ccc2c1=O`, for which the survivor count under setting [2] is given as 6 of 6 and the survivor count under setting [3] was 6 of 6.

As for `[Se]c1nccn2cnnc12`, the survivor count by setting is: (dose: 100.0 mg/kg/injection, schedule: Q01DX001 (ip), vehicle: saline with Tween-80) 0 of 6; (dose: 200.0 mg/kg/injection, schedule: Q01DX001 (ip), vehicle: saline with Tween-80) 0 of 6; (dose: 400.0 mg/kg/injection, schedule: Q01DX001 (ip), vehicle: saline with Tween-80) 0 of 6.

Regarding `Cn1c(=O)c2c(nnc(-c3ccc(Cl)cc3)[n+]2[O-])n(C)c1=O`, the survivor count (dose: 200.0 mg/kg/injection, schedule: Q01DX001 (ip), vehicle: Klucel (hydroxypropylcellulose) (HPC)) is on record as 2 of 6 and the survivor count (dose: 400.0 mg/kg/injection, schedule: Q01DX001 (ip), vehicle: Klucel (hydroxypropylcellulose) (HPC)) was 0 of 6.

As to `C[N+]1(C)CCC(=O)C(c2ccccc2)C1` (stereo unspecified), the survivor count (dose: 200.0 mg/kg/injection, schedule: Q04DX003 (ip), vehicle: saline) was 0 of 6.

With `CC(C)(C#N)OC(=O)c1cccc(C(=O)OC(C)(C)C#N)c1Sc1ccccc1`, the survivor count is 3 of 6 (dose: 200.0 mg/kg/injection, schedule: Q01DX001 (ip), vehicle: other) and 4 of 6 (dose: 400.0 mg/kg/injection, schedule: Q01DX001 (ip), vehicle: other).

Regarding `CCSC(=S)N=Nc1c(O)n(C)c2ccccc12`, the survivor count under setting [3] is on record as 6 of 6.

On to `CSc1nc2c(Cl)ncnc2s1`, for which the survivor count (dose: 240.0 mg/kg/injection, schedule: Q01DX005 (ip), vehicle: saline with Tween-80) is reported as 3 of 6.

As to `CN(N=O)C(=O)NCCSSCCNC(=O)N(C)N=O`, the T/C reads like this: (dose: 20.0 mg/kg/injection, schedule: Q01DX009 (ip), vehicle: saline with Tween-80) 136 % of control; (dose: 40.0 mg/kg/injection, schedule: Q04DX003 (ip), vehicle: saline with Tween-80) 130 % of control; (dose: 52.8 mg/kg/injection, schedule: Q04DX003 (ip), vehicle: saline with Tween-80) 131 % of control; (dose: 80.0 mg/kg/injection, schedule: Q04DX003 (ip), vehicle: saline with Tween-80) 136 % of control. Moreover, the survivor count is, setting by setting: (dose: 80.0 mg/kg/injection, schedule: Q01DX009 (ip), vehicle: saline with Tween-80) 6 of 6; (dose: 120.0 mg/kg/injection, schedule: Q04DX003 (ip), vehicle: saline with Tween-80) 6 of 6.

Consider `COc1ccc2c(c1)OC1CC2NC(N)=N1` (stereo unspecified), for which the survivor count is, setting by setting: (dose: 50.0 mg/kg/injection, schedule: Q01DX009 (ip), vehicle: saline) 0 of 6; under setting [2], 0 of 6; under setting [3], 0 of 6.

Regarding `CCOc1ccc(/C=C/C(C)=N/NC(N)=Nc2ccc(Cl)cc2)cc1`, the survivor count is reported as 5 of 6 under setting [4] and 0 of 6 under setting [5].

As to `CC1=C(C)C(=O)C(C(C)(C)CC(=O)Sc2ncnc3nc[nH]c23)=C(C)C1=O`, the T/C under setting [6] is 125 % of control.

`CCCCCCN=Cc1c(O)c(O)c(C(C)C)c2cc(C)c(-c3c(C)cc4c(C(C)C)c(O)c(O)c(C=NCCCCCC)c4c3O)c(O)c12`: the survivor count is 5 of 5 under setting [1], 5 of 5 under setting [4] and 5 of 5 under setting [5].

Consider `[Cl][Pt+2][Cl].[NH-]c1ccccc1F.[NH-]c1ccccc1F`, for which the T/C reads like this: (dose: 1.56 mg/kg/injection, schedule: Q01DX009 (ip), vehicle: Klucel (hydroxypropylcellulose) (HPC)) 138 % of control; (dose: 3.12 mg/kg/injection, schedule: Q01DX009 (ip), vehicle: Klucel (hydroxypropylcellulose) (HPC)) 145 % of control; (dose: 6.25 mg/kg/injection, schedule: Q01DX009 (ip), vehicle: Klucel (hydroxypropylcellulose) (HPC)) 146 [5 of 6 alive] and 148 % of control; under setting [7], 148 % of control [5 of 6 alive]. Moreover, the survivor count runs as follows: under setting [7], 5 of 6; under setting [8], 1 of 6 and 4 of 6; (dose: 50.0 mg/kg/injection, schedule: Q01DX009 (ip), vehicle: Klucel (hydroxypropylcellulose) (HPC)) 0 of 6; (dose: 100.0 mg/kg/injection, schedule: Q01DX009 (ip), vehicle: Klucel (hydroxypropylcellulose) (HPC)) 0 of 6; (dose: 200.0 mg/kg/injection, schedule: Q01DX009 (ip), vehicle: Klucel (hydroxypropylcellulose) (HPC)) 0 of 6.

As to `O=C(Nc1ccc(N=Nc2ccccc2)cc1)SCCO`, the survivor count under setting [5] was 4 of 6.

Take `COc1cccc2c1C(=O)c1c(O)c3c(c(O)c1C2=O)C[C@@H](C(=O)CO)C[C@@H]3OC1CC(N)C(O)C(C)O1` (stereo partly specified): for the setting “dose: 50.0 mg/kg/injection, schedule: Q04DX003 (ip), vehicle: water”, the T/C is 130 % of control.

For `COC(=O)/C(C#N)=C/c1ccco1`, the survivor count (dose: 200.0 mg/kg/injection, schedule: Q01DX005 (ip), vehicle: Klucel (hydroxypropylcellulose) (HPC)) is listed as 0 of 5.

Regarding `NP(=O)(OCCC(=O)c1ccccc1)N(CCCl)CCCl` (stereo unspecified), the survivor count runs as follows: (dose: 200.0 mg/kg/injection, schedule: Q04DX002 (ip), vehicle: saline with Tween-80) 5 of 6; under setting [6], 5 of 5.

As to `COC1/C=C/OC2(C)Oc3c(C)c(O)c4c(c3C2=O)C(=O)c2cnc(nc2C4=O)/C(C)=C\C=C\C(C)C(O)C(C)C(O)C(C)C(OC(C)=O)C1C` (stereo unspecified), the survivor count is, setting by setting: (dose: 200.0 mg/kg/injection, schedule: Q01DX009 (ip), vehicle: other) 3 of 5; (dose: 400.0 mg/kg/injection, schedule: Q01DX009 (ip), vehicle: other) 0 of 5.

Take `Cc1coc2c1C(OC(=O)C(C)C)C1(C)C(C)CCC(O)C1C2=O` (stereo unspecified): under setting [8], the survivor count is 5 of 6.

Consider `COc1cc2c(cc1OC)C(CC1CCN3CCCCC3C1)NCC2` (stereo unspecified), for which the survivor count was 2 of 6 (dose: 175.0 mg/kg/injection, schedule: Q04DX003 (ip), vehicle: saline) and 0 of 6 (dose: 350.0 mg/kg/injection, schedule: Q04DX003 (ip), vehicle: saline).

With `N#Cc1c(-c2ccc(Cl)cc2)c(-c2ccc(Cl)cc2)nn(CCOC(=O)CN)c1=O`, the survivor count (dose: 50.0 mg/kg/injection, schedule: Q01DX005 (ip), vehicle: distilled water + Tween-80) is 0 of 6 and 6 of 6; the survivor count (dose: 100.0 mg/kg/injection, schedule: Q01DX005 (ip), vehicle: distilled water + Tween-80) is on record as 0 of 6; the survivor count (dose: 100.0 mg/kg/injection, schedule: Q01DX005 (ip), vehicle: saline) was 5 of 6; the survivor count (dose: 100.0 mg/kg/injection, schedule: Q04DX002 (ip), vehicle: distilled water + Tween-80) was 5 of 6 and 6 of 6; the survivor count (dose: 200.0 mg/kg/injection, schedule: Q01DX005 (ip), vehicle: distilled water + Tween-80) is recorded as 0 of 6; the survivor count (dose: 200.0 mg/kg/injection, schedule: Q01DX005 (ip), vehicle: saline) was 0 of 6. Besides, the survivor count (dose: 200.0 mg/kg/injection, schedule: Q04DX002 (ip), vehicle: distilled water + Tween-80) is listed as 5 of 6. Also, the T/C (dose: 50.0 mg/kg/injection, schedule: Q04DX002 (ip), vehicle: distilled water + Tween-80) was 126 and 137 % of control.
